Laboratory results published in PubChem BioAssay AID330 (DTP/NCI, 2004).
The list is a part of this screen's results and no random one: it covers a few groups of compounds. Not every dose and run of a compound is shown. T/C is the treated group as % of the vehicle group. Where survival is the endpoint, the PubChem record calls one and a half times the control and up active, and a quarter to a half above the control has no call in these data; cut-offs in other NCI protocols can differ. Some entries show no survivor count and are marked so; the dose need not have been tolerated. Schedules are NCI's codes, read here as Q, the interval in days (D) or hours (H), X, the number of doses.

System: P388 leukemia ip, CD2F1 mice, survival T/C
Assay: NCI In Vivo Anticancer Drug Screen. Data for tumor model P388 Leukemia (intraperitoneal) in CD2F1 (CDF1) mice
Details: T/C endpoint: median survival time, higher T/C = longer survival

For `OC1(C#CCN(CCCl)CCCl)CCCCC1`, the T/C (dose: 6.25 mg/kg/injection, schedule: Q01DX009 (ip), vehicle: saline with Tween-80) was 159 % of control [survivor count not shown], the T/C (dose: 8.0 mg/kg/injection, schedule: Q01DX009 (ip), vehicle: saline) was 118 % of control [survivor count not shown] and the T/C (dose: 12.0 mg/kg/injection, schedule: Q01DX009 (ip), vehicle: saline) was 118 % of control [survivor count not shown]. For the same compound, the T/C (dose: 12.5 mg/kg/injection, schedule: Q01DX009 (ip), vehicle: saline with Tween-80) was 181 % of control [survivor count not shown], the T/C (dose: 18.0 mg/kg/injection, schedule: Q01DX009 (ip), vehicle: saline) was 90 % of control [survivor count not shown] and the T/C (dose: 25.0 mg/kg/injection, schedule: Q01DX009 (ip), vehicle: saline with Tween-80) was 86 % of control [survivor count not shown]. The T/C (dose: 25.0 mg/kg/injection, schedule: Q04DX003 (ip), vehicle: saline) was 121 % of control [survivor count not shown].
In the case of `C=C(C)C#CC(O)(C(=O)OC1CCN(C)CC1)c1ccccc1` (stereo unspecified), the T/C (dose: 50.0 mg/kg/injection, schedule: Q01DX009 (ip), vehicle: saline) is reported as 105 % of control [survivor count not shown], the T/C (dose: 100.0 mg/kg/injection, schedule: Q01DX009 (ip), vehicle: saline) is reported as 96 % of control [survivor count not shown] and the T/C (dose: 200.0 mg/kg/injection, schedule: Q01DX009 (ip), vehicle: saline) is reported as 98 % of control [survivor count not shown].
`FCCNCCCl` was tested, and the T/C (dose: 6.25 mg/kg/injection, schedule: Q01DX009 (ip), vehicle: alcohol) was 127 % of control [survivor count not shown].
